The supplement of paper PMC3334620
In all, about 33,000 sequences were measured (“E-score (-0.5 to 0.5)”: median about -0.015, highest 2% from about 0.3 on). The list shows a part of the results.

What follows are sequences tested against T1, Abf1 (UniProt P14164) (assay: PBM E-score (8-mer binding enrichment) (E-score (-0.5 to 0.5)); higher = stronger / more preferred TF binding). Conditions: protein concentration: 200 nM; construct: GST-full length.
T1 sequence: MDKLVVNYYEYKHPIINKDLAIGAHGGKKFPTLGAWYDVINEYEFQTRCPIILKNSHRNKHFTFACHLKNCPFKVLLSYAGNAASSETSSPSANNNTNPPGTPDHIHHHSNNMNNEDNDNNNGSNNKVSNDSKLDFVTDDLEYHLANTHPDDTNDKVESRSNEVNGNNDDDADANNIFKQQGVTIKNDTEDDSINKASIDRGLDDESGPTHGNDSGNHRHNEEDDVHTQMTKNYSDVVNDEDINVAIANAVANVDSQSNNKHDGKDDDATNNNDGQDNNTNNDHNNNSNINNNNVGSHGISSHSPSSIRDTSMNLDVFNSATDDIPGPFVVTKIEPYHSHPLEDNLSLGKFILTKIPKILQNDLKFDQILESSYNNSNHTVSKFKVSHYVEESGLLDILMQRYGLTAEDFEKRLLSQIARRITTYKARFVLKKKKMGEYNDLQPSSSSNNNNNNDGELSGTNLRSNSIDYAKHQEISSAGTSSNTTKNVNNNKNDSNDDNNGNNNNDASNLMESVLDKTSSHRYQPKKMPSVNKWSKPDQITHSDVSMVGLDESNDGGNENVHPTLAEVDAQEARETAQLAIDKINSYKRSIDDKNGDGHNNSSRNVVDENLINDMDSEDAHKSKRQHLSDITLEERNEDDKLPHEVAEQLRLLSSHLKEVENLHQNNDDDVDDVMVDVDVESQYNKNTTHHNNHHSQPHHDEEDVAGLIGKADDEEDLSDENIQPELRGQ
Experimental: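 Universal 'all 10-mer' protein binding microarrays (Agilent AMADID 015681) probed with GST-tagged S. cerevisiae TFs (full-length or DBD) made by in vitro transcription/translation (PURExpress), about 100-200 nM. Bound TF was detected with fluorescent anti-GST. Each ungapped 8-mer (which stands for itself and its reverse complement) is scored by the PBM enrichment score (E-score), a modified Wilcoxon-Mann-Whitney statistic from -0.5 to +0.5, computed with the Universal PBM Analysis Suite. Scale: above 0.35 generally sequence-specific binding.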

Sequence	PBM E-score
AACTCACC	0.0628
CGTAGAAC	0.118
ATAGAAGC	0.106
TAAGCAAA	0.105
CAGTACCG	-0.149
GTTTGAGA	0.0182
GCAACGGA	0.0356
AGTTCCAA	-0.139
AATTGCAC	0.00627
GTAAGACA	0.102
TATTTAAA	0.214
AAACAAGG	-0.149
AATACCCA	0.00288
CGTACTGC	0.0469
GGGACCGA	-0.337
GGTATTAC	0.02
AGTCTAGG	-0.236
ATCCATTC	0.0787
AAAGCGAA	0.118
CATTGGGG	-0.199
CAGGGTTC	-0.0481
AAGTGATG	0.314
AGTGTTGA	0.0629
AGGGGCAA	-0.214
AATTCGAG	-0.0817

Sequence	PBM E-score
GCACCGAA	-0.0558
CACTCAGC	0.0359
ATCCTTGG	-0.289
AGAAAAAA	0.0788
CCATTTAA	0.0684
AAGACTGT	-0.267
GGATTCGA	-0.0742
AAGTTGAG	-0.0809
AACTCGTC	0.113
ACTTCTCG	0.111
CAGGTCGA	0.0616
ACGAAACC	0.196
ATACAACG	0.0467
ATCATTTC	0.312
AACACCAA	0.0367
AGTACAAG	0.0462
AAAGGCAC	-0.0274
ACAGCACG	0.0582
CGCGTCGA	0.121
ACCGAGCG	-0.183
ACGTACGT	0.335
ACTACTCA	0.213
CTAAAACC	-0.0918
CGGCCTAG	-0.141
GTGATGGA	0.0539

Sequence	PBM E-score
TCCGTGCA	0.312
ACATACGA	0.356
AGTACTGG	-0.0712
ACATCGTA	0.207
ATTAAAGA	0.174
TCGTTCCA	-0.0813
ATGTTTGC	-0.162
CGTTCCAC	-0.0766
ACACAGCG	-0.0765
AGGCCTGG	-0.236
TAGTCCAA	-0.00474
GAGTAGCA	-0.184
CAAGCCAA	-0.0777
CAACCTTA	-0.0413
ATAGACTC	-0.294
CTTAATTA	0.0662
CAGACTAC	-0.185
CAGGAATA	-0.314
GGTCCGTA	0.112
CATTTTCA	0.118
ACACTCCC	-0.21
TAAGTACA	0.0945
CGGACCTA	-0.0975
GGAATAAA	-0.0763
GGGTCCAA	-0.198

Sequence	PBM E-score
ATCATAAA	0.303
CCAAGTTA	-0.0409
TTCCGAAA	0.104
ATTTAATC	0.207
GGATGGAA	-0.0799
AATGGCCT	0.0132
ACATCCGG	-0.21
GCTTGGGA	-0.0764
CGGACGCC	-0.0127
ATCAGCAG	0.0641
ACAGCGTC	-0.0987
CACTGGAG	-0.245
AGGAGCCT	-0.339
AATGAGTA	0.0631
ATAGCCAA	0.034
GCGGTGCA	-0.183
ATTAAATG	0.208
CTGTACCC	-0.26
GGTAAAGA	0.0544
GGTTCGCA	-0.0562
CTGGCTTA	-0.00286
AATTTTAA	0.158
CGTCTGAA	0.129
CTATTAGC	0.151
ACGATTTG	0.169

Sequence	PBM E-score
AAATGCCC	-0.275
ACCTTCCG	-0.171
AACTGGGT	-0.181
GGTTGTAA	-0.0279
TTCAAGAA	0.131
CCGAATGC	-0.0115
TCCTAGCA	-0.129
CGGGCCGA	-0.00016
CCTTCCCG	-0.152
GAAGGCCC	-0.198
CTGCCAAG	-0.0177
AGAAAAAG	-0.135
GCGGGGAA	-0.0511
AGGGAAGC	-0.197
TCGAGAAA	0.0126
AGTCAGGA	-0.124
TAGGAATA	-0.0281
ACTGCTCG	-0.0422
CTATTTAA	0.00082
ACATAGCA	0.00829
AGTTAAGG	0.0186
AGTCTGAG	-0.185
ATCGCGGG	-0.0772
CCAGTACG	0.0702
GCAGAAGA	0.0315

Sequence	PBM E-score
AGACATAA	-0.0415
CTACGTGC	-0.0934
ATTTTATG	0.128
GTCTTTAA	0.0512
CCGTATAG	0.295
AGTCCATC	-0.0761
AATCCCAG	-0.019
CTAGCGAC	0.153
GTCGCTTA	0.14
GTGCCCTA	-0.0841
TATCGGAA	0.181
AACATGAC	0.146
ACCTGGCT	-0.0275
CGTCGCGA	0.205
GCAGTATA	-0.00438
TCGGCTCA	0.0732
GAGTACGA	0.0499
GCCATGGA	-0.167
GTCCGTGA	0.191
CGTCAAGC	-0.00097
AGACTGAT	-0.102
GGTCGGTA	-0.0569
CGGGGGCC	-0.357
CACTCTGC	-0.0179
GTGGACCA	-0.0273

Sequence	PBM E-score
CAAGAAGG	-0.104
AATGTTCA	0.0814
ACTGCTTC	-0.188
CTAACCAC	0.129
GATTGCCC	-0.159
CGTTTGTC	0.129
GATGCACC	-0.0827
AGGACTAG	-0.0252
ATAATAAA	0.2
CGCTTTGA	-0.131
AGGGGACC	-0.244
TACCATCA	-0.276
GGGTAAGA	-0.0923
CTAATACC	0.0687
GCCTACTA	-0.137
ATTAGTTG	0.148
ACTAGTCC	-0.0252
AACTCGCG	0.211
ACACCAGC	-0.294
ACGCTTAA	0.017
GCGCAAGC	-0.111
ACTCGGTC	-0.15

Some values from the list:
AGGACTAG – PBM E-score: -0.0252
ACTAGTCC – PBM E-score: -0.0252
ATTAGTTG – PBM E-score: 0.148
CTAATACC – PBM E-score: 0.0687
AGGGGACC – PBM E-score: -0.244
TACCATCA – PBM E-score: -0.276
ACACCAGC – PBM E-score: -0.294
